According to the supplement of paper PMC12823440, “Inhibitors supercharge kinase turnover through native proteolytic circuits” (Nature, 2025):
Counter-ions that a name gives are not always drawn. The list shows a part of the results. Hit calls seldom repeat between salt and free forms of one compound.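 Kinases, fused to nanoluciferase, were expressed in K562 cells; luminescence was measured every 4 h from 2 to 18 h as percent of control (DMSO = 100%, positive control = 0%). A time point is decreased if signal falls significantly (2 sigma). Hits were called by the authors by a rule that is not shown; the count of time points alone does not decide it.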

Amino acid sequences for entries named in this document (tags omitted). A change or cut given only in a name is not applied to a line headed by its entry.
UniProt P50613: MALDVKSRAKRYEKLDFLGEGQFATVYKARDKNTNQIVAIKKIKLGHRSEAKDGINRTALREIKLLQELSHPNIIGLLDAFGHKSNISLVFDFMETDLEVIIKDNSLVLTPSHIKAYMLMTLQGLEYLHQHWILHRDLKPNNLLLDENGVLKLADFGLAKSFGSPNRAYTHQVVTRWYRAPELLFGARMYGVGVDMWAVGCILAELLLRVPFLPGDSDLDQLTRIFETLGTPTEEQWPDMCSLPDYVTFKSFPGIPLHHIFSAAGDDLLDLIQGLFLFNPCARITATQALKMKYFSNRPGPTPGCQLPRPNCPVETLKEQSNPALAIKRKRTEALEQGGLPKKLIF
UniProt P50750, whole entry: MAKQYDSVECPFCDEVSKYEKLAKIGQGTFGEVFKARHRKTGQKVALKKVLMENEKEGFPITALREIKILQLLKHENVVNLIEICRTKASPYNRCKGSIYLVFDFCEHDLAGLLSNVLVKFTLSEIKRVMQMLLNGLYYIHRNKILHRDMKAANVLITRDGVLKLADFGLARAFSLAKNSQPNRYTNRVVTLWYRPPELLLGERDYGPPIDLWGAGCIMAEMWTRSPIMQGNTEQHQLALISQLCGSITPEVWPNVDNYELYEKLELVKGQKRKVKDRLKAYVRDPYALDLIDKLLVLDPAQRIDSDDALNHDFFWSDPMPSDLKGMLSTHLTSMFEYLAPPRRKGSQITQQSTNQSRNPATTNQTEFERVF
UniProt O96017, whole entry: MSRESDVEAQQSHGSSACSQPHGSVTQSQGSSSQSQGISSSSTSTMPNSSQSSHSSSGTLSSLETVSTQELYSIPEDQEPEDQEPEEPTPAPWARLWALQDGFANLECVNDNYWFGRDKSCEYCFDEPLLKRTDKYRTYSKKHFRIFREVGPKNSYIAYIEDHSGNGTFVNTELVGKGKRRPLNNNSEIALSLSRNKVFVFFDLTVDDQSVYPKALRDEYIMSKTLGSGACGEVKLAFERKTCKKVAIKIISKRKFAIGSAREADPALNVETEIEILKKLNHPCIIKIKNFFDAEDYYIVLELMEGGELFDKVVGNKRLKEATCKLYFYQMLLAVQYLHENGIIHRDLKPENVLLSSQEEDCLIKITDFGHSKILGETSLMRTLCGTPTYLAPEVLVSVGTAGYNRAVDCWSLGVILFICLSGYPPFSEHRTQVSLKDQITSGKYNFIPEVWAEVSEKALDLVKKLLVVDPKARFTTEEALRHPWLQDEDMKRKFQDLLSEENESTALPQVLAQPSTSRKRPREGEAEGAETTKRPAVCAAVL
UniProt P07333, whole entry: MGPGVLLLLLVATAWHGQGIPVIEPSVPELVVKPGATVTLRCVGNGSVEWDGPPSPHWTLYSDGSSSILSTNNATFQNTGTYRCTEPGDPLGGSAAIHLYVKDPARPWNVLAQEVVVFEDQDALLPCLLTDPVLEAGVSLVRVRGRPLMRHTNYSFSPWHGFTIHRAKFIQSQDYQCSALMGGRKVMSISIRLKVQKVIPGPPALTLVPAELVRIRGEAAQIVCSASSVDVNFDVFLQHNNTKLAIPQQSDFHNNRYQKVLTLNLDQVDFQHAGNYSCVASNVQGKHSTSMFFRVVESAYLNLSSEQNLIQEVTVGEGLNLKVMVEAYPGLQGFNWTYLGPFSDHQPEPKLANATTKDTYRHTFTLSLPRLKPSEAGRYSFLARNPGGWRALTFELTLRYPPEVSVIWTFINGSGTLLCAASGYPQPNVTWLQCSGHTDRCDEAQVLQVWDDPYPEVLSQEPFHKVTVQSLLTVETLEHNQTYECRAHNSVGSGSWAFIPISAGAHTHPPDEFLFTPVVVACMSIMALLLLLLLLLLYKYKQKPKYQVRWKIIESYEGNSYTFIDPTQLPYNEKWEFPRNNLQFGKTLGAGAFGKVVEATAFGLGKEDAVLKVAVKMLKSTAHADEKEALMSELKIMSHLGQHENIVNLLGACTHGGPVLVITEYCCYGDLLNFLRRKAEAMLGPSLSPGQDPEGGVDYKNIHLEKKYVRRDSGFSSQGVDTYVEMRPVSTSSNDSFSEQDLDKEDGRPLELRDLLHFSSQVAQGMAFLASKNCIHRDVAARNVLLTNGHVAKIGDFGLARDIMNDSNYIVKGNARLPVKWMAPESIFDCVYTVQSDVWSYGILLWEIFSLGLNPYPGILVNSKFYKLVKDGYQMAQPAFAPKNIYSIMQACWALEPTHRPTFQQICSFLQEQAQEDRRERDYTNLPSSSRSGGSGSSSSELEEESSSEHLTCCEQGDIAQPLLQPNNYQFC
UniProt P41240: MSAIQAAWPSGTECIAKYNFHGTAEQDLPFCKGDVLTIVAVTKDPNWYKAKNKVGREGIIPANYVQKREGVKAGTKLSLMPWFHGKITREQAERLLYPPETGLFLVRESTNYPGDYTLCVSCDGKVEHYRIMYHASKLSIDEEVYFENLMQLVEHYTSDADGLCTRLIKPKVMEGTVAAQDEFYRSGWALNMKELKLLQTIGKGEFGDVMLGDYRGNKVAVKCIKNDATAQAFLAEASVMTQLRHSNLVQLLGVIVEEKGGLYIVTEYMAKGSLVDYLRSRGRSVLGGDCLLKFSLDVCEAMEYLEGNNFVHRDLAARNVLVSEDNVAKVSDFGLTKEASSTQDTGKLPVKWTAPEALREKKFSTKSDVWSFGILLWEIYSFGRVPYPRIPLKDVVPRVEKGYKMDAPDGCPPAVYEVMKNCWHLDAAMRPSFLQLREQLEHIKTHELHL
UniProt P48729: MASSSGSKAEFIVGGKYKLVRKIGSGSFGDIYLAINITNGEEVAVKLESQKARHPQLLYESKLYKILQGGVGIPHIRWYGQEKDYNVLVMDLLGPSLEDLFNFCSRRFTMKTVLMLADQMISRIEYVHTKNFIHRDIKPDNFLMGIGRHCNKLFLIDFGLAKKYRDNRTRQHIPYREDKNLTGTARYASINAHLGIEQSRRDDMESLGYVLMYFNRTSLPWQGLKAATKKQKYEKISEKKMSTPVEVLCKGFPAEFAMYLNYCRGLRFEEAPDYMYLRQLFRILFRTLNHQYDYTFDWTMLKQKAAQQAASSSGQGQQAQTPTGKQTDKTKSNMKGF
UniProt P48730: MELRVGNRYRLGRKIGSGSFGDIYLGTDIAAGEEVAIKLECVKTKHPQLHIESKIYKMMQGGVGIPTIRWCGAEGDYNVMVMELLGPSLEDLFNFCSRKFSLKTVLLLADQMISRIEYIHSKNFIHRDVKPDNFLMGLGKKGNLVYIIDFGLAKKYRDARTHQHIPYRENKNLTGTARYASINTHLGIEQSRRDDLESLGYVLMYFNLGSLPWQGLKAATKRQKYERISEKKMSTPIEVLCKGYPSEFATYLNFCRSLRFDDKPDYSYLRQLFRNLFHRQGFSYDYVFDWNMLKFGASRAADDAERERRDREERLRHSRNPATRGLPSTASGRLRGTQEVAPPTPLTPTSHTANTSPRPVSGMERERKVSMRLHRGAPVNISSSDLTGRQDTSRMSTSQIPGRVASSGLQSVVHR
UniProt Q08345: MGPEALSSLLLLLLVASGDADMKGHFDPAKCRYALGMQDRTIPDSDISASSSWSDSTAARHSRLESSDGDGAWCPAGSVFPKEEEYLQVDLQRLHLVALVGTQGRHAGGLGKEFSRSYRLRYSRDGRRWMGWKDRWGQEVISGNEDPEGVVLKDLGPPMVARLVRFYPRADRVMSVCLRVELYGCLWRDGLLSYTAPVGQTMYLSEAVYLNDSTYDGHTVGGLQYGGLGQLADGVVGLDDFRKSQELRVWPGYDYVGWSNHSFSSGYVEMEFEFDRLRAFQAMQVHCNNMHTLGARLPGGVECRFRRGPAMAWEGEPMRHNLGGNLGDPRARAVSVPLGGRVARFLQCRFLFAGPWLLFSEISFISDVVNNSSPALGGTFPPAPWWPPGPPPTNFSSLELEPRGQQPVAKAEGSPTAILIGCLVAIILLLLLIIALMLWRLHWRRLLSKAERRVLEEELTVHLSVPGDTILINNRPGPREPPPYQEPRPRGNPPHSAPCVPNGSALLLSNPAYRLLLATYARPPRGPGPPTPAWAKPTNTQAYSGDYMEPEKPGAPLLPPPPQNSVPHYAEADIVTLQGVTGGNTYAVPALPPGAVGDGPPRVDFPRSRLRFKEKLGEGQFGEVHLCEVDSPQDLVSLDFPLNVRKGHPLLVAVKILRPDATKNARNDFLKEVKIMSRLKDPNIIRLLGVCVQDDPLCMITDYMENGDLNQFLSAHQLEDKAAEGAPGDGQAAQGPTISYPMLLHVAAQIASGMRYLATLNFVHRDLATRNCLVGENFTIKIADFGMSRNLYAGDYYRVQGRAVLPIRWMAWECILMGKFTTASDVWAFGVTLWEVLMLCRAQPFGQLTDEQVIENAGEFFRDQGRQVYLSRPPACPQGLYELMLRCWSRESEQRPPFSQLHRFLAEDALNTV
UniProt Q9Y463, whole entry, looked up: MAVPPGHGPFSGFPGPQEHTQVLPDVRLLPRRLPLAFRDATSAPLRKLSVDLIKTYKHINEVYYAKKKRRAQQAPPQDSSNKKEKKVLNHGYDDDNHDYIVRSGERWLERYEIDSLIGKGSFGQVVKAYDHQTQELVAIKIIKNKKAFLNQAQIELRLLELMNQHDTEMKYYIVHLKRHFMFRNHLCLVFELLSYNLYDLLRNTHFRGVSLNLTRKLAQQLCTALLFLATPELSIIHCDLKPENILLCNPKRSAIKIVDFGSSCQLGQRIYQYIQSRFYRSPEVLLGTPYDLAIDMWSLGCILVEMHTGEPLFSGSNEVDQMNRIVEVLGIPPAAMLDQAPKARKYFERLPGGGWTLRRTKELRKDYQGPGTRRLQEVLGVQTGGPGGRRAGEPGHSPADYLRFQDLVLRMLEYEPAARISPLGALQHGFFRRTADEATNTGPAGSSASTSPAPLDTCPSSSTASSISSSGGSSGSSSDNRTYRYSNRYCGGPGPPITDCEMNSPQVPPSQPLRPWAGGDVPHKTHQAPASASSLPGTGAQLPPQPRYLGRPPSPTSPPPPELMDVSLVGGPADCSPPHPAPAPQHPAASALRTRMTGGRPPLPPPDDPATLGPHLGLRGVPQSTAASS
UniProt Q92630: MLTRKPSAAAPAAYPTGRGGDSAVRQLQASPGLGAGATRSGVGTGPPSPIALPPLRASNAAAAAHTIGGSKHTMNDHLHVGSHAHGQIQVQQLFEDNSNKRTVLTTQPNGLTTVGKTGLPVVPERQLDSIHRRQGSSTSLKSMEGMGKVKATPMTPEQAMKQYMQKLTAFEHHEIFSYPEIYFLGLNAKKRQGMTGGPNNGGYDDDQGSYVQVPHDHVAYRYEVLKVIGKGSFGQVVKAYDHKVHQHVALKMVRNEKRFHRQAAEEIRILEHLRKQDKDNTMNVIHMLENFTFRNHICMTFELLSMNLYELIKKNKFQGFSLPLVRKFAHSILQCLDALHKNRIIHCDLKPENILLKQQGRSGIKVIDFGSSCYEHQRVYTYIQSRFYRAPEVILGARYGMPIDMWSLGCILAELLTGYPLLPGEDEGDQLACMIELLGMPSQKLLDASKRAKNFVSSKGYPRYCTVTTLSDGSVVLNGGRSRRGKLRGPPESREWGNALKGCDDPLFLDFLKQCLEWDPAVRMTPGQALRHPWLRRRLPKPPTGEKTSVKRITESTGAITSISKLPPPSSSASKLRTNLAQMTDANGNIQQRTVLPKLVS

Key:
Experiment in all cases: kinase-Nluc reporter destabilization hit call (1 = scored as downregulated) (binary); higher = compound decreases kinase abundance
Conditions in all cases: K562; 2-18 h
[1] = target: CDK7 (UniProt P50613)
[2] = target: CDK9 (UniProt P50750)
[3] = target: CHEK2 (UniProt O96017)
[4] = target: CSF1R (UniProt P07333)
[5] = target: CSK (UniProt P41240)
[6] = target: CSNK1A1 (UniProt P48729)
[7] = target: CSNK1D (UniProt P48730)
[8] = target: DDR1 (UniProt Q08345)
[9] = target: DYRK1B (UniProt Q9Y463)
[10] = target: DYRK2 (UniProt Q92630)

Measured: kinase-Nluc reporter destabilization hit call

COc1cc2ncn(-c3cc(OCc4ccccc4S(C)(=O)=O)c(C#N)s3)c2cc1OC (10 µM)
inactive: [1] 0 | [2] 0 | [3] 0 | [4] 0 | [5] 0 | [6] 0 | [7] 0 | [8] 0 | [9] 0 | [10] 0

C/C(=C1/C(=O)Nc2ccc(NC(N)=O)cc21)c1ccc[nH]1 (10 µM)
inactive: [1] 0 | [2] 0 | [3] 0 | [4] 0 | [5] 0 | [6] 0 | [7] 0 | [8] 0 | [9] 0 | [10] 0

C[C@@H]1C(=O)O[C@H](C)[C@H]1C[C@@H](O)[C@](C)(O)[C@H]1CC[C@@]2(O)C3=CC(=O)[C@@H]4C[C@@H](O)[C@@H](O)C[C@]4(C)[C@H]3CC[C@]12C [Cyasterone] (10 µM)
inactive: [1] 0 | [2] 0 | [3] 0 | [4] 0 | [5] 0 | [6] 0 | [7] 0 | [8] 0 | [9] 0 | [10] 0

CC(C)NC(=O)N1CC[C@H](NC2=Nc3cc(F)ccc3N(CC(F)F)c3ccc(Cl)cc32)C1 (10 µM)
inactive: [1] 0 | [2] 0 | [3] 0 | [4] 0 | [5] 0 | [6] 0 | [7] 0 | [8] 0 | [9] 0 | [10] 0

O=C(NC(NC(=S)Nc1ccc(F)c([N+](=O)[O-])c1)C(Cl)(Cl)Cl)C(c1ccccc1)c1ccccc1 (stereo not given) (10 µM)
inactive: [1] 0 | [2] 0 | [3] 0 | [4] 0 | [5] 0 | [6] 0 | [7] 0 | [8] 0 | [9] 0 | [10] 0

COc1cc(N2CCC(N3CCN(C)CC3)CC2)ccc1Nc1ncc(Cl)c(Nc2ccccc2P(C)(C)=O)n1 [Brigatinib] (2 µM)
inactive: [1] 0 | [2] 0 | [3] 0 | [4] 0 | [5] 0 | [6] 0 | [7] 0 | [8] 0 | [9] 0 | [10] 0

CO[C@H]1C[C@@H]2CC[C@@H](C)[C@@](O)(O2)C(=O)C(=O)N2CCCC[C@H]2C(=O)O[C@H]([C@H](C)C[C@@H]2CC[C@@H](O)[C@H](OC)C2)CC(=O)[C@H](C)/C=C(\C)[C@@H](O)[C@@H](OC)C(=O)[C@H](C)C[C@H](C)/C=C/C=C/C=C/1C [Rapamycin] (10 µM)
inactive: [1] 0 | [2] 0 | [3] 0 | [4] 0 | [5] 0 | [6] 0 | [7] 0 | [8] 0 | [9] 0 | [10] 0

Fc1ccc(-c2nc(-c3c(F)cccc3F)[nH]c2-c2ccncc2)cc1 (10 µM)
inactive: [1] 0 | [2] 0 | [3] 0 | [4] 0 | [5] 0 | [6] 0 | [7] 0 | [8] 0 | [9] 0 | [10] 0

Cc1cc(Nc2nc(N[C@@H](C)c3ccc(F)cc3)c(C#N)cc2F)n[nH]1 (10 µM)
inactive: [1] 0 | [2] 0 | [3] 0 | [4] 0 | [5] 0 | [6] 0 | [7] 0 | [8] 0 | [9] 0 | [10] 0

Cc1cc(Nc2cc(Cl)nc(Oc3ccc([N+](=O)[O-])cc3)n2)n[nH]1 [Autophinib] (2.5 µM)
inactive: [1] 0 | [2] 0 | [3] 0 | [4] 0 | [5] 0 | [6] 0 | [7] 0 | [8] 0 | [9] 0 | [10] 0

Cc1c(CN2CCN(C(=O)[C@H](C)O)CC2)sc2c(N3CCOCC3)nc(-c3cnc(N)nc3)nc12 [Apitolisib] (10 µM)
active: [1] 1
inactive: [2] 0 | [3] 0 | [4] 0 | [5] 0 | [6] 0 | [7] 0 | [8] 0 | [9] 0 | [10] 0

CC(C)(NS(=O)(=O)c1ccc2c(Cl)cnc(N=C(N)N)c2c1)C(=O)O (10 µM)
inactive: [1] 0 | [2] 0 | [3] 0 | [4] 0 | [5] 0 | [6] 0 | [7] 0 | [8] 0 | [9] 0 | [10] 0

CC(C)=CC[C@H](O)C1=CC(=O)c2c(O)ccc(O)c2C1=O [(-)-Alkannin] (2.5 µM)
inactive: [1] 0 | [2] 0 | [3] 0 | [4] 0 | [5] 0 | [6] 0 | [7] 0 | [8] 0 | [9] 0 | [10] 0

COc1ncc(-c2nc(N3CCOCC3)nc3c(CN4CCC(C(C)(C)O)CC4)cc(F)cc23)cc1NS(C)(=O)=O [Linperlisib] (10 µM)
inactive: [1] 0 | [2] 0 | [3] 0 | [4] 0 | [5] 0 | [6] 0 | [7] 0 | [8] 0 | [9] 0 | [10] 0

CC(C)c1cnc(-c2cc(Cl)ccc2F)cc1Nc1ccncc1C(=O)NC(CO)CO (2.5 µM)
inactive: [1] 0 | [2] 0 | [3] 0 | [4] 0 | [5] 0 | [6] 0 | [7] 0 | [8] 0 | [9] 0 | [10] 0

COCCOc1ccc(-c2cn(-c3ccccc3)c3nc[nH]c(=O)c23)cc1 (10 µM)
inactive: [1] 0 | [2] 0 | [3] 0 | [4] 0 | [5] 0 | [6] 0 | [7] 0 | [8] 0 | [9] 0 | [10] 0

COc1ccc(-c2ccc3c(N4CCOC[C@@H]4C)nc(N4CCOC[C@@H]4C)nc3n2)cc1CO (2.5 µM)
inactive: [1] 0 | [2] 0 | [3] 0 | [4] 0 | [5] 0 | [6] 0 | [7] 0 | [8] 0 | [9] 0 | [10] 0

Fetched by structure from the entries so far, 2 records:
Fc1ccc(-c2nc(-c3c(F)cccc3F)[nH]c2-c2ccncc2)cc1 (10 µM)
inactive: [1] 0 | [2] 0 | [3] 0 | [4] 0 | [5] 0 | [6] 0 | [7] 0 | [8] 0 | [9] 0 | [10] 0

COc1cc2ncn(-c3cc(OCc4ccccc4S(C)(=O)=O)c(C#N)s3)c2cc1OC (10 µM)
inactive: [1] 0 | [2] 0 | [3] 0 | [4] 0 | [5] 0 | [6] 0 | [7] 0 | [8] 0 | [9] 0 | [10] 0

The list goes on:

Cn1c(=O)c(F)c(Nc2ccc(I)cc2F)c2c(=O)n(C[C@@H](O)CO)cnc21 (10 µM)
inactive: [1] 0 | [2] 0 | [3] 0 | [4] 0 | [5] 0 | [6] 0 | [7] 0 | [8] 0 | [9] 0 | [10] 0

COc1ccc([C@@H]2CC(=O)c3c(O)cc(O)cc3O2)cc1O [Hesperetin] (10 µM)
inactive: [1] 0 | [2] 0 | [3] 0 | [4] 0 | [5] 0 | [6] 0 | [7] 0 | [8] 0 | [9] 0 | [10] 0

Cc1ccc(Nc2cc(-c3cccc(N4C(=O)c5ccccc5C4=O)c3)ncn2)cc1NS(C)(=O)=O (10 µM)
inactive: [1] 0 | [2] 0 | [3] 0 | [4] 0 | [5] 0 | [6] 0 | [7] 0 | [8] 0 | [9] 0 | [10] 0

CC(C)=CCC[C@](C)(O[C@@H]1O[C@H](CO)[C@@H](O)[C@H](O)[C@H]1O)[C@H]1CC[C@]2(C)[C@@H]1[C@H](O)C[C@@H]1[C@@]3(C)CC[C@H](O)C(C)(C)[C@@H]3[C@@H](O[C@@H]3O[C@H](CO)[C@@H](O)[C@H](O)[C@H]3O[C@@H]3O[C@@H](C)[C@H](O)[C@@H](O)[C@H]3O)C[C@]12C [Ginsenoside Re] (10 µM)
inactive: [1] 0 | [2] 0 | [3] 0 | [4] 0 | [5] 0 | [6] 0 | [7] 0 | [8] 0 | [9] 0 | [10] 0

O=[N+]([O-])c1cc(C(F)(F)F)cc([N+](=O)[O-])c1NNC(=S)Nc1ccc(F)cc1 (10 µM)
inactive: [1] 0 | [2] 0 | [3] 0 | [4] 0 | [5] 0 | [6] 0 | [7] 0 | [8] 0 | [9] 0 | [10] 0

CCOc1ccc(C(=O)Nc2ncc([N+](=O)[O-])s2)cc1 (10 µM)
inactive: [1] 0 | [2] 0 | [3] 0 | [4] 0 | [5] 0 | [6] 0 | [7] 0 | [8] 0 | [9] 0 | [10] 0

CC(c1ccc(-c2cnc3c(-c4ccc(S(N)(=O)=O)c5ccccc45)cnn3c2)cc1)N1CCCC1 (stereo not given) (2.5 µM)
inactive: [1] 0 | [2] 0 | [3] 0 | [4] 0 | [5] 0 | [6] 0 | [7] 0 | [8] 0 | [9] 0 | [10] 0

C=CC(=O)Nc1cccc(C)c1Nc1ncc2cc(-c3c(Cl)c(OC)cc(OC)c3Cl)ccc2n1 (2.5 µM)
inactive: [1] 0 | [2] 0 | [3] 0 | [4] 0 | [5] 0 | [6] 0 | [7] 0 | [8] 0 | [9] 0 | [10] 0

CNC(=O)Nc1ccc(-c2cc(-c3ccnc(Nc4ccc(C)c(S(=O)(=O)N(C)C)c4)n3)ccn2)cc1 [hSMG-1 inhibitor 11e] (2.5 µM)
inactive: [1] 0 | [2] 0 | [3] 0 | [4] 0 | [5] 0 | [6] 0 | [7] 0 | [8] 0 | [9] 0 | [10] 0

CC(C)CN(CC(=O)N1CCN(CC(OCc2ccc3ccccc3c2)c2ccc(Cl)cc2Cl)CC1)CC(C)C (stereo not given) [LYN-1604 (dihydrochloride)] (2.5 µM)
inactive: [1] 0 | [2] 0 | [3] 0 | [4] 0 | [5] 0 | [6] 0 | [7] 0 | [8] 0 | [9] 0 | [10] 0

COc1ccc(C(=O)Nc2sc3c(c2C(N)=O)CCCC3)cc1OC (10 µM)
inactive: [1] 0 | [2] 0 | [3] 0 | [4] 0 | [5] 0 | [6] 0 | [7] 0 | [8] 0 | [9] 0 | [10] 0
